# Data: paper doi:10.1101/2020.02.24.961524
# Chains of the proteins cited; added tags and fusions are not shown. Residues count along the entry.
# UniProt P43220, residues 24-463: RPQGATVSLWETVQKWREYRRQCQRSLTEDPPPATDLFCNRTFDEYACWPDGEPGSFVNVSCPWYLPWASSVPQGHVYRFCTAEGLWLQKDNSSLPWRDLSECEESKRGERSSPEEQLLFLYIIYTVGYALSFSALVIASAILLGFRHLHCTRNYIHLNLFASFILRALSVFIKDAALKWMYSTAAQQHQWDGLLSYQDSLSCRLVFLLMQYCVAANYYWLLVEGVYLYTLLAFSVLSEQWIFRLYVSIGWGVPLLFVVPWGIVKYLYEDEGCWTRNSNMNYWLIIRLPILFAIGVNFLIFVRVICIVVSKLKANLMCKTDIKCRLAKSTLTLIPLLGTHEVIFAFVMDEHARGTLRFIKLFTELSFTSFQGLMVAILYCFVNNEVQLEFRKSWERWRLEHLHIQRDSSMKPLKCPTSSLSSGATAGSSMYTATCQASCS
# UniProt P32121: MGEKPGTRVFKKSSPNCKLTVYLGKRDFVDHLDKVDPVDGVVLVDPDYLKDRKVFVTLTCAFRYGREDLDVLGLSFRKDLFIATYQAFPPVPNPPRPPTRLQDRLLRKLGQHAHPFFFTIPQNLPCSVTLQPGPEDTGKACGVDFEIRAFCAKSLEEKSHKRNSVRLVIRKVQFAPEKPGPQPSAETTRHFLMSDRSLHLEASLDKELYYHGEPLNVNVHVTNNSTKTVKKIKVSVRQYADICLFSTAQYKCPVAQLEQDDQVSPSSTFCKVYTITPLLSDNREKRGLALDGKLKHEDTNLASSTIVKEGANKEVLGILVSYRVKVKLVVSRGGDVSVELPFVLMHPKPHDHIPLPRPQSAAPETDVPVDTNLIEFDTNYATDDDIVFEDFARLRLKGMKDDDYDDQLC
# These are yes or no findings as the source states them, for the method shown. Binding seen in cells or lysates may run through a third protein. Some results given as binding are weak or reduced against the parent protein; the word gives no strength.
# Legend:
# [1] = target: GLP-1R of PathHunter CHO-K1-βarr2-EA-GLP-1R cells (UniProt P43220); assay: split reporter
# GLP-1R-SmBiT = GLP-1R-SmBiT (UniProt P43220); assay: split reporter
Substance,binding [1],binding (GLP-1R-SmBiT)
β-arrestin-2-EA of PathHunter CHO-K1-βarr2-EA-GLP-1R cells (from UniProt P32121 1-409),binds,–
βarr2-LgBiT (from UniProt P32121 1-409),–,binds
